Data taken from ChEMBL document CHEMBL3988442, “University of Dundee, Small-Polar-MMV Screening Library” (2021).

Amino acid sequences for entries named in this document (tags omitted).
UniProt E9BF75, entry or part of it: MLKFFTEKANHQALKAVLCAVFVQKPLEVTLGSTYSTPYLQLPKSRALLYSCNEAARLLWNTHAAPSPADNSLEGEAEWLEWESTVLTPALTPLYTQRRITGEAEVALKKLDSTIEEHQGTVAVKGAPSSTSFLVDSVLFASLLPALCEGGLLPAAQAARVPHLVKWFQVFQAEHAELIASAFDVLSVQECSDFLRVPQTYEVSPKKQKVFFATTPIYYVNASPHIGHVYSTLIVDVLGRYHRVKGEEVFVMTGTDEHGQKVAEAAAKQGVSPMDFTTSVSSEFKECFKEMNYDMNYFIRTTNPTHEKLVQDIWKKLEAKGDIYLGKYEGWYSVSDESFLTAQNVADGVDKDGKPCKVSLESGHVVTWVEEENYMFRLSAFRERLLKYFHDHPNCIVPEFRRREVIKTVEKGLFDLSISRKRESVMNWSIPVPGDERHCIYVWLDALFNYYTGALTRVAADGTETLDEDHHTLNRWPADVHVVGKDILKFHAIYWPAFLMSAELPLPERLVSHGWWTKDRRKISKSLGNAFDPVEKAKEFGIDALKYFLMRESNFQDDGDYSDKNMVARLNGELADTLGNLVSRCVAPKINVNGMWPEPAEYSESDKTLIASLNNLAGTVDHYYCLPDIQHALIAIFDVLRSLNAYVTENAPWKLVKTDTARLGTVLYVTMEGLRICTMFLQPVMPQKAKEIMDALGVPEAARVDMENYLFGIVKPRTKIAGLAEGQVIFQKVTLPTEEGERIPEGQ

Results are percentages, as filed. How 0% and 100% were set is not recorded. Most values in the screen are low, and negative values occur. The compounds are a random part of those screened.

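Primary screen of methionyl-tRNA synthetase; the read-out is not stated. Target: Methionyl-tRNA synthetase (putative), Leishmania donovani (UniProt E9BF75). The test concentration is not given. The values are filed as inhibition. Of about 68,000 compounds tested this way, about 24 (0.035%) reached 50% or more in at least one test.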

- Cc1cc(C)n(CCN2CCN(C(=O)c3cc4ccccc4o3)CC2)n1 : 14.39%
- CS(=O)(=O)Cc1ccc(Cl)cc1NCc1cccc(F)c1F : 7.986%
- Cc1ncc(CN)c(-c2cn(C)c3ccccc23)n1 : 18.73%
- CCc1c(O)nc(SCC(=O)Nc2ccccc2)n(C(C)CC)c1=O (centres unmarked) : 6.597%
- COc1ccc2c(c1)C(C(=O)N(C)CCCc1nccn1C)CC(=O)N2 (centres unmarked) : 1.72%
- CCCNC(=O)NC(=O)CN1C=Nc2ccccc2S1(=O)=O : 20%
- C[C@@H]1CN(CCCOc2ccc(F)cc2)CC[C@@]1(O)C1CCOCC1 : 16.33%
- CCCN1CCc2[nH]cnc2C12CCN(C(=O)CCn1cccn1)CC2 : 16.84%
- O=C(NCCc1ccncc1)[C@H]1CC[C@@H]2[C@@H](CCN2CC2CC2)O1 : 9.63%
- Cc1nc(C(C)(C)C)sc1C(=O)NCCNc1ncccc1C#N : 17.48%
- CC1=NOC(C(=O)N2CCC(O)(c3ccc4nc(C)ccc4c3)CC2)C1 (centres unmarked) : 10.86%
- CC(=O)Nc1nc(C(=O)NCCOc2cccc(C)c2)cs1 : 10.37%
- CCC(CN1CCOCC1)n1cncc1-c1ccc2c(c1)CCN2CC (centres unmarked) : 1.596%
- Cc1nc(Nc2cnccn2)cc(C2CCCN(C(C)C)C2)n1 (centres unmarked) : 12.94%
- c1ncn(CC2CCCCN2Cc2cn3ccsc3n2)n1 (centres unmarked) : 6.234%
- Cc1ccccc1C(=O)NCCCN1CCc2ccccc2C1 : 10.12%
- CNc1cncc(C2CCN(C(=O)c3cnco3)CC2)n1 : 7.862%
- CC(C)C(NC(=O)C1CCCC1)c1cc(O)nc(-c2cccnc2)n1 (centres unmarked) : 8.14%
- Cc1ncc(S(=O)(=O)Nc2ccnn2C2CCCCC2)[nH]1 : 10.57%
- CC1CCCN(c2ccccc2OCC(=O)NC2CC2)C1 (centres unmarked) : 5.651%
- NC(=O)c1cccc(OCCC(=O)NC2CCc3c(F)cccc32)c1 (centres unmarked) : 13.73%
- Cc1c[nH]c(CN2CCOC(c3ccc(F)cc3)C2)c(C)c1=O (centres unmarked) : 0.2545%
- CCCn1ccnc1CN1CCCC1c1ccccn1 (centres unmarked) : 18.09%
- c1ccc(COC[C@H]2CC[C@H]3[C@H](CCN3Cc3ccccn3)O2)nc1 : 6.468%
- CCC(=O)N1CCN(c2ncnc3cc4c(cc23)OCCO4)CC1 : 2.764%
- CO[C@@H]1CC[C@H]2[C@H]1OCCN2C(=O)c1ccc(C)nc1 : 6.849%
- CC(C)N1CCCn2nc(C(=O)NCc3ccccc3F)cc2C1 : 14.37%
- COc1ccccc1OCc1cc(C(=O)N2[C@H](C)CC[C@@H]2C)n[nH]1 : 13.11%
- Cc1nc(CCNc2nc(N(C)C)nc3c2CCCC3)cc(=O)[nH]1 : 8.156%
- Cc1cc(CNC(=O)C2CC(=O)N(CCN(C)C)C2)cc(C)n1 (centres unmarked) : 10.59%
- CN(CCC#N)C(=O)CCOc1cccc(F)c1 : 2.817%
- COc1cccc(CNC(=O)CCNS(=O)(=O)c2ccc(C)cc2)c1 : 13.5%
- CCCC(=O)N1CCCC(c2cc3cccnc3c(O)n2)C1 (centres unmarked) : 17.09%
- Cc1nn(C)c(C)c1C(C(=O)O)N1CC=C(c2ccccc2)CC1 (centres unmarked) : 12.45%
- CC(C)c1nccn1C1CCCN(C(=O)CCNS(C)(=O)=O)C1 (centres unmarked) : 16%
- CCc1nc(C2CCCN2C(=O)c2ccc(N(C)C)nn2)no1 (centres unmarked) : 17.46%
- CC(C)(N)C(=O)N1CCCC1c1cncc(Oc2ccc(F)cc2)n1 (centres unmarked) : 12.24%
- Cn1cc(C2CCCN2CCCc2nc(-c3cccs3)no2)cn1 (centres unmarked) : 13.07%
- Cc1cc(CNCc2c(C)n(CC(C)C)c3ccccc23)[nH]n1 : 9.832%
- O=C(O)[C@@H]1CN(Cc2ccc(-c3cc[nH]n3)s2)C[C@H]1C1CC1 : 15.88%
- CN(Cc1cccc(O)c1)C(=O)c1ccc(CCC(C)(C)O)cc1 : 0.9804%
- CN(C)C(=O)N1CCc2c(CNc3ncccn3)cncc2C1 : 13.81%
- CCn1cnnc1C1CCN(C(=O)c2cnn(C(C)(C)C)c2)CC1 : 18.03%
- Cc1n[nH]c2c1C(c1cc(F)cc(F)c1)SCC(=O)N2 (centres unmarked) : 5.943%
- NC(=O)c1cn[nH]c1C1CCCN1C(=O)c1cnccn1 (centres unmarked) : 5.774%
- CC(c1ccc(Cl)cc1)N1CCN(CCNS(C)(=O)=O)CC1 (centres unmarked) : 9.783%
- CN1CCOCC2(CCCN(C(=O)Cc3ccncc3)C2)C1 (centres unmarked) : 4.667%
- CNC(=O)[C@@H](c1ccccc1F)N1CCC[C@H]1C(=O)NC1CCOCC1 : 12.7%

3 of the entries, repeated:

Compound,Inhibition
CCC(CN1CCOCC1)n1cncc1-c1ccc2c(c1)CCN2CC (centres unmarked),1.596%
COc1ccc2c(c1)C(C(=O)N(C)CCCc1nccn1C)CC(=O)N2 (centres unmarked),1.72%
CCc1c(O)nc(SCC(=O)Nc2ccccc2)n(C(C)CC)c1=O (centres unmarked),6.597%